Reference: patent US7732416B2, “Avermectins substituted in the 4″-position having pesticidal properties” (Merial Limited, priority 2001, dated 2010)
Some of these results come from one statement about several compounds together.

How the values were obtained:
Assay type in all cases: in vivo
Tetranychus urticae = experiment: Example B7 Activity against Tetranychus urticae (sprayed bean plants); details: 12.5 ppm spray liquor, mixed population, 25° C., 6 days
Spodoptera littoralis [1] = experiment: Example B2 Activity against Spodoptera littoralis, systemic (maize seedlings); details: maize seedlings 6 days in test solution, L1 larvae on cut leaves, 4 days
Heliothis virescens = experiment: Example B3 Activity against Heliothis virescens (eggs on filter paper); details: 0.8 ml test solution on 0- to 24-hour-old eggs, evaluation after 6 days
Plutella xylostella = experiment: Example B4 Activity against Plutella xylostella caterpillars (sprayed cabbage plants); details: 12.5 ppm spray liquor, first-stage caterpillars, 3 days
Spodoptera littoralis [2] = experiment: Example B1 Activity against Spodoptera littoralis (sprayed soya bean plants); details: 12.5 ppm spray liquor, first-stage caterpillars, 3 days
Diabrotica balteata = experiment: Example B6 Activity against Diabrotica balteata (sprayed maize seedlings); details: 12.5 ppm spray liquor, second-stage larvae, 6 days

Measured: reduction in the pest population

CCC(C)[C@H]1O[C@]2(C=C[C@@H]1C)C[C@@H]1C[C@@H](C/C=C(\C)[C@@H](O[C@H]3C[C@H](OC)[C@@H](O[C@H]4C[C@H](OC)[C@H](NCc5cc([N+](=O)[O-])ccc5Cl)[C@H](C)O4)[C@H](C)O3)C(C)/C=C/C=C3\CO[C@@H]4[C@H](O)C(C)=C[C@@H](C(=O)O1)[C@]34O)O2 (stereo partly drawn) [1.093]
more than 80%: Tetranychus urticae | Spodoptera littoralis [1] | Heliothis virescens | Plutella xylostella | Spodoptera littoralis [2] | Diabrotica balteata

CCC(C)C1OC2(C=CC1C)CC1CC(CC=C(C)C(OC3CC(OC)C(OC4CC(OC)C(Nc5cccc6ccccc56)C(C)O4)C(C)O3)C(C)C=CC=C3COC4C(O)C(C)=CC(C(=O)O1)C34O)O2 (stereo not drawn) [1.142]
more than 80%: Tetranychus urticae | Spodoptera littoralis [1] | Heliothis virescens | Plutella xylostella | Spodoptera littoralis [2] | Diabrotica balteata

CCC(C)C1OC2(C=CC1C)CC1CC(CC=C(C)C(OC3CC(OC)C(OC4CC(OC)C(NCC=Cc5ccccc5)C(C)O4)C(C)O3)C(C)C=CC=C3COC4C(O)C(C)=CC(C(=O)O1)C34O)O2 (stereo not drawn) [1.029]
more than 80%: Tetranychus urticae | Spodoptera littoralis [1] | Heliothis virescens | Plutella xylostella | Spodoptera littoralis [2] | Diabrotica balteata

CCC(C)[C@H]1O[C@]2(C=C[C@@H]1C)C[C@@H]1C[C@@H](C/C=C(\C)[C@@H](O[C@H]3C[C@H](OC)[C@@H](O[C@H]4C[C@H](OC)[C@H](NCc5ccc(OC)c(O)c5)[C@H](C)O4)[C@H](C)O3)C(C)/C=C/C=C3\CO[C@@H]4[C@H](O)C(C)=C[C@@H](C(=O)O1)[C@]34O)O2 (stereo partly drawn) [1.121]
more than 80%: Tetranychus urticae | Spodoptera littoralis [1] | Heliothis virescens | Plutella xylostella | Spodoptera littoralis [2] | Diabrotica balteata

CCC(C)[C@H]1O[C@]2(C=C[C@@H]1C)C[C@@H]1C[C@@H](C/C=C(\C)[C@@H](O[C@H]3C[C@H](OC)[C@@H](O[C@H]4C[C@H](OC)[C@H](NCc5ccc(N(C)C)c6ccccc56)[C@H](C)O4)[C@H](C)O3)C(C)/C=C/C=C3\CO[C@@H]4[C@H](O)C(C)=C[C@@H](C(=O)O1)[C@]34O)O2 (stereo partly drawn) [1.154]
more than 80%: Tetranychus urticae | Spodoptera littoralis [1] | Heliothis virescens | Plutella xylostella | Spodoptera littoralis [2] | Diabrotica balteata

CCC(C)C1OC2(C=CC1C)CC1CC(CC=C(C)C(OC3CC(OC)C(OC4CC(OC)C(NCc5c(C)n(C)n(-c6ccccc6)c5=O)C(C)O4)C(C)O3)C(C)C=CC=C3COC4C(O)C(C)=CC(C(=O)O1)C34O)O2 (stereo not drawn) [1.147]
more than 80%: Tetranychus urticae | Spodoptera littoralis [1] | Heliothis virescens | Plutella xylostella | Spodoptera littoralis [2] | Diabrotica balteata

CCC(C)C1OC2(C=CC1C)CC1CC(CC=C(C)C(OC3CC(OC)C(OC4CC(OC)C(NCc5ccc(OC)c6ccccc56)C(C)O4)C(C)O3)C(C)C=CC=C3COC4C(O)C(C)=CC(C(=O)O1)C34O)O2 (stereo not drawn) [1.015]
more than 80%: Tetranychus urticae | Spodoptera littoralis [1] | Heliothis virescens | Plutella xylostella | Spodoptera littoralis [2] | Diabrotica balteata

CCCCC(CC)CNC1C(C)OC(OC2C(C)OC(OC3C(C)=CCC4CC(CC5(C=CC(C)C(C(C)CC)O5)O4)OC(=O)C4C=C(C)C(O)C5OCC(=CC=CC3C)C45O)CC2OC)CC1OC (stereo not drawn) [1.123]
more than 80%: Tetranychus urticae | Spodoptera littoralis [1] | Heliothis virescens | Plutella xylostella | Spodoptera littoralis [2] | Diabrotica balteata

CCC(C)[C@H]1O[C@]2(C=C[C@@H]1C)C[C@@H]1C[C@@H](C/C=C(\C)[C@@H](O[C@H]3C[C@H](OC)[C@@H](O[C@H]4C[C@H](OC)[C@H](NCc5cccc(Oc6cccc(C(F)(F)F)c6)c5)[C@H](C)O4)[C@H](C)O3)C(C)/C=C/C=C3\CO[C@@H]4[C@H](O)C(C)=C[C@@H](C(=O)O1)[C@]34O)O2 (stereo partly drawn) [1.155]
more than 80%: Tetranychus urticae | Spodoptera littoralis [1] | Heliothis virescens | Plutella xylostella | Spodoptera littoralis [2] | Diabrotica balteata

CCCOc1ccc(CNC2C(C)OC(OC3C(C)OC(OC4C(C)=CCC5CC(CC6(C=CC(C)C(C(C)CC)O6)O5)OC(=O)C5C=C(C)C(O)C6OCC(=CC=CC4C)C56O)CC3OC)CC2OC)cc1 (stereo not drawn) [1.033]
more than 80%: Tetranychus urticae | Spodoptera littoralis [1] | Heliothis virescens | Plutella xylostella | Spodoptera littoralis [2] | Diabrotica balteata

CCC(C)[C@H]1O[C@]2(C=C[C@@H]1C)C[C@@H]1C[C@@H](C/C=C(\C)[C@@H](O[C@H]3C[C@H](OC)[C@@H](O[C@H]4C[C@H](OC)[C@H](NCc5cc(Br)ccc5OC)[C@H](C)O4)[C@H](C)O3)C(C)/C=C/C=C3\CO[C@@H]4[C@H](O)C(C)=C[C@@H](C(=O)O1)[C@]34O)O2 (stereo partly drawn) [1.117]
more than 80%: Tetranychus urticae | Spodoptera littoralis [1] | Heliothis virescens | Plutella xylostella | Spodoptera littoralis [2] | Diabrotica balteata

CCC(C)C1OC2(C=CC1C)CC1CC(CC=C(C)C(OC3CC(OC)C(OC4CC(OC)C(NCc5c(C)cc(C)cc5C)C(C)O4)C(C)O3)C(C)C=CC=C3COC4C(O)C(C)=CC(C(=O)O1)C34O)O2 (stereo not drawn) [1.140]
more than 80%: Tetranychus urticae | Spodoptera littoralis [1] | Heliothis virescens | Plutella xylostella | Spodoptera littoralis [2] | Diabrotica balteata

CCC(C)C1OC2(C=CC1C)CC1CC(CC=C(C)C(OC3CC(OC)C(OC4CC(OC)C(NCCOCc5ccccc5)C(C)O4)C(C)O3)C(C)C=CC=C3COC4C(O)C(C)=CC(C(=O)O1)C34O)O2 (stereo not drawn) [1.133]
more than 80%: Tetranychus urticae | Spodoptera littoralis [1] | Heliothis virescens | Plutella xylostella | Spodoptera littoralis [2] | Diabrotica balteata

CCC(C)[C@H]1O[C@]2(C=C[C@@H]1C)C[C@@H]1C[C@@H](C/C=C(\C)[C@@H](O[C@H]3C[C@H](OC)[C@@H](O[C@H]4C[C@H](OC)[C@H](NCc5c(F)cccc5F)[C@H](C)O4)[C@H](C)O3)C(C)/C=C/C=C3\CO[C@@H]4[C@H](O)C(C)=C[C@@H](C(=O)O1)[C@]34O)O2 (stereo partly drawn) [1.094]
more than 80%: Tetranychus urticae | Spodoptera littoralis [1] | Heliothis virescens | Plutella xylostella | Spodoptera littoralis [2] | Diabrotica balteata

CCCCNC1C(C)OC(OC2C(C)OC(OC3C(C)=CCC4CC(CC5(C=CC(C)C(C(C)CC)O5)O4)OC(=O)C4C=C(C)C(O)C5OCC(=CC=CC3C)C45O)CC2OC)CC1OC (stereo not drawn) [1.028]
more than 80%: Tetranychus urticae | Spodoptera littoralis [1] | Heliothis virescens | Plutella xylostella | Spodoptera littoralis [2] | Diabrotica balteata

C=CCN(C)[C@@H]1[C@H](C)O[C@@H](O[C@H]2[C@H](C)O[C@@H](O[C@@H]3/C(C)=C/C[C@@H]4C[C@@H](C[C@]5(C=C[C@H](C)[C@@H](C(C)CC)O5)O4)OC(=O)[C@@H]4C=C(C)[C@@H](O)[C@H]5OC/C(=C\C=C\C3C)[C@]54O)C[C@@H]2OC)C[C@@H]1OC (stereo partly drawn) [2.002]
more than 80%: Tetranychus urticae | Spodoptera littoralis [1] | Heliothis virescens | Plutella xylostella | Spodoptera littoralis [2] | Diabrotica balteata

CCC(C)C1OC2(C=CC1C)CC1CC(CC=C(C)C(OC3CC(OC)C(OC4CC(OC)C(NCc5coc6ccc(C)cc6c5=O)C(C)O4)C(C)O3)C(C)C=CC=C3COC4C(O)C(C)=CC(C(=O)O1)C34O)O2 (stereo not drawn) [1.144]
more than 80%: Tetranychus urticae | Spodoptera littoralis [1] | Heliothis virescens | Plutella xylostella | Spodoptera littoralis [2] | Diabrotica balteata

CCC(C)[C@H]1O[C@]2(C=C[C@@H]1C)C[C@@H]1C[C@@H](C/C=C(\C)[C@@H](O[C@H]3C[C@H](OC)[C@@H](O[C@H]4C[C@H](OC)[C@H](N(C)Cc5ccccc5)[C@H](C)O4)[C@H](C)O3)C(C)/C=C/C=C3\CO[C@@H]4[C@H](O)C(C)=C[C@@H](C(=O)O1)[C@]34O)O2 (stereo partly drawn) [2.001]
more than 80%: Tetranychus urticae | Spodoptera littoralis [1] | Heliothis virescens | Plutella xylostella | Spodoptera littoralis [2] | Diabrotica balteata
